In article PMC12040169 (PLOS Biology, 2025):
This is one part of the list.

Each compound was assayed on T1, CTL2-GFP (C. trachomatis L2/434/Bu, GFP-expressing). Conditions: bulk GFP, single well; 28.5 h, 10 µM; inhibitor.
T1 construct: L2/434/Bu, GFP-expressing
Parameters: species or system HeLa; Intracellular C. trachomatis growth in HeLa cells, bulk GFP fluorescence relative to DMSO

SMILES	% of control remaining
O=C(Nc1cccnc1)N1CCN(c2ccc(F)cc2)CC1 [CBK156427]	95.394%
COc1ccccc1CN(C)S(=O)(=O)c1ccc(S(N)(=O)=O)cc1 [CBK306008]	116.565%
COc1ccc(CC(=O)N2CCC(c3cc4ccccc4cn3)C2)cc1 (stereo not shown) [CBK283421]	87.9146%
CCCc1cc(=O)[nH]c(SCc2noc(-c3snnc3C)n2)n1 [CBK006474]	116.408%
CCN1C(=O)c2ccccc2C(=O)[C@@]2(C)CN(CC(C)C)C[C@@H]12 [CBK283479]	120.396%
O=C1CSC2(C(=O)Nc3ccccc32)N1c1cccc(F)c1 (stereo not shown) [CBK093488]	91%
CC(C)(C)OC(=O)N(CCCN1CCN(c2ccc(F)cc2)CC1)c1ccccc1 [CBK016723]	109.302%
O=C(N/N=C/c1cc(O)c(Br)cc1Br)c1ccncc1 [CBK262297]	124.447%
COc1ccc2[nH]c3c(c2c1)CCOC31CCN(C(=O)N[C@@H](C)c2ccccc2)CC1 [CBK047114]	126.287%
CN(C)c1ncc(-c2cccc(Cl)c2)c(C2CCCN2C(=O)CC2CCCC2)n1 (stereo not shown) [CBK286253]	41.742%
CC(O)CNCc1ccc(OCC(=O)NC(C)(C)C)cc1 (stereo not shown) [CBK270232C]	110.941%
CCn1cc(CN(CC(C)C)C(=O)c2ccccc2C#N)cn1 [CBK306729]	116.728%
COc1ccc(CC(=O)N2CCCCC2c2ccc(Cc3cccc(F)c3)nc2)cc1 (stereo not shown) [CBK286493]	107.592%
Cc1cc(NC(=O)c2ccc(N3C(=O)CCC3=O)cc2)nc2c1c(=O)oc1ccccc12 [CBK291205]	145.836%
O=S(=O)(NCCn1cccc1)c1ccc2ccccc2c1 [CBK270211]	137.749%
c1ccc2c(CCN3CCC(Oc4cncc(OCCN5CCOCC5)n4)C3)c[nH]c2c1 (stereo not shown) [CBK084500]	118.072%
Cc1nc2c(cc(OCC(O)COc3ccc(C#N)cc3)c3ccsc32)s1 (stereo not shown) [CBK296632]	181.557%
CCCCC(C(=O)O)N1C(=O)c2ccccc2C1=O (stereo not shown) [CBK287153]	114.407%
CC(C)(C)c1nc(NS(=O)(=O)c2ccc(Cl)cc2)sc1Br [CBK014258]	123.223%
O=C(O)[C@@H]1CCCN1C(=O)CCn1nnc2ccccc2c1=O [CBK286765]	165.685%

Among those listed so far, three have an NH in an aromatic ring.
SMILES	% of control remaining
CCCc1cc(=O)[nH]c(SCc2noc(-c3snnc3C)n2)n1 [CBK006474]	116.408%
COc1ccc2[nH]c3c(c2c1)CCOC31CCN(C(=O)N[C@@H](C)c2ccccc2)CC1 [CBK047114]	126.287%
c1ccc2c(CCN3CCC(Oc4cncc(OCCN5CCOCC5)n4)C3)c[nH]c2c1 (stereo not shown) [CBK084500]	118.072%

Later entries:

SMILES	% of control remaining
Cn1nnnc1SCC(=O)Nc1cc(F)ccc1F [CBK057872]	128.955%
CCCC(=O)c1ccc(S(=O)(=O)N2CCN(Cc3c[nH]nc3-c3cccs3)CC2)cc1 [CBK063160]	124.652%
Cc1cc(C)n(Cc2cc(C(=O)NCC(C)Oc3cccnc3)n[nH]2)n1 (stereo not shown) [CBK307609]	139.875%
O=C(CCNS(=O)(=O)c1ccc(Cl)cc1)N1CCN(Cc2ccccc2)CC1 [CBK269405]	112.04%
CC1CN(CCOc2ccccc2C=O)CC(C)O1 (stereo not shown) [CBK269687C]	106.561%
Cc1cccc(OC(C)C(=O)Nc2ccccc2C(=O)N2CCCCC2)c1 (stereo not shown) [CBK269960]	112.525%
Cc1n[nH]c(C)c1CNC(=O)CCc1ccc(Cl)cc1 [CBK283185]	109.712%
Fc1ccc(CNc2c(-c3ccco3)nc3cnccn23)cc1 [CBK283694]	163.735%
O=C(O)c1cccnc1SC1CC(=O)N(c2ccc([N+](=O)[O-])cc2)C1=O (stereo not shown) [CBK263079]	115.673%
S=C(NCCCN1CCOCC1)Nc1cccc(Cl)c1 [CBK263255]	95.7183%
COCC(=O)N[C@H]1C[C@H]2C(=O)Nc3ccc(Br)cc3C(=O)N2C1 [CBK289357]	140.868%
O=C(CC1CCCCC1)N1CCN(c2ncccn2)CC1 [CBK144529]	144.366%
COc1ccc(OC)c(-c2ccc(NC(=O)c3ccc(Cl)cc3Cl)c(C(=O)O)c2)c1 [CBK000393D]	136.393%
CC(/C=C1\SC(=S)N(C(Cc2ccccc2)C(=O)O)C1=O)=C\c1ccccc1 (stereo not shown) [CBK263524]	100%
CC(CC(=O)N1CCCC(c2cc3cccnc3[nH]2)C1)n1cccn1 (stereo not shown) [CBK284996]	107.432%
CCc1c(C)nc2ccccc2c1SCCC(=O)O [CBK116382C]	131.218%
COc1ccc(S(=O)(=O)NCCCn2ccnc2)cc1Cl [CBK269997]	100.033%
O=C(CSc1ccccc1)Nc1cc(Cl)ccc1O [CBK265837]	168.928%
O=C(NCc1ccc(F)cc1)[C@H]1CN2CCC1C[C@@H]2Cn1cc(C2(O)CCCC2)nn1 (stereo partly shown) [CBK289093]	97.756%
CCCCOc1ccc(C=Cc2nc3sc(C(=O)O)c(C)c3c(=O)[nH]2)cc1 [CBK297524]	119.829%
